76 compounds from the supplement of paper PMC11060735 can be followed below.

Structures are written as SMILES. Where “and” joins values, the source holds several entries; their conditions need not be identical. Identical values can stand only once. Counter-ions that a name gives are not always drawn. ± gives the standard deviation of the averaged measurements. Over roughly 1,800 compounds, “GFP- (p16Ink4a-) cell count relative to negative-control wells” has its median near 0.99; the lowest 2% begin near 0.5. Some of the results follow.

For the test, the system named is mouse p16Ink4a+/- lung fibroblasts (INKBRITE, bleomycin-injured). Kind of test: GFP- (p16Ink4a-) cell count relative to negative-control wells (fold of vehicle); higher = more p16Ink4a- cells surviving. The following applies: 1 µM; 3 days.
`CO[C@H]1C[C@@H]2CC[C@@H](C)[C@@](O)(O2)C(=O)C(=O)N2CCCC[C@H]2C(=O)O[C@H]([C@H](C)C[C@@H]2CC[C@@H](OCCO)[C@H](OC)C2)CC(=O)[C@H](C)/C=C(\C)[C@@H](O)[C@@H](OC)C(=O)[C@H](C)C[C@H](C)/C=C/C=C/C=C/1C` [Everolimus] displayed a GFP- of 0.743.

For `CCCCCOC(=O)Nc1nc(=O)n([C@@H]2O[C@H](C)[C@@H](O)[C@H]2O)cc1F` [Capecitabine], the GFP- was determined as 1.13. Turning to `Oc1ccc(OC2CCCCO2)cc1` (stereo unspecified) [Deoxyarbutin], the GFP- turned out to be 1.06. `COc1cccc(-c2cc(=O)c3ccccc3o2)c1N` gave a GFP- of 0.839.

`CN1C(=O)C(Cc2c[nH]c3ccccc23)NC1=S` (stereo unspecified) [Necrostatin-1] registered a GFP- of 0.985.

With `O=C(/C=C/c1ccccc1)NC(NC(=S)Nc1ccc(Cl)cc1)C(Cl)(Cl)Cl` (stereo unspecified), the GFP- amounted to 0.868. The compound `N[C@@H](Cc1cc(I)c(Oc2cc(I)c(O)c(I)c2)c(I)c1)C(=O)O` [Thyroxine, Levothyroxine] returned a GFP- of 1.2. `Oc1nc2ccccc2n1CCCN1CCC(n2c(O)nc3cc(Cl)ccc32)CC1` [Domperidone]: the GFP- amounted to 0.958. For `CCN1CCC[C@H]1CNC(=O)c1cc(S(N)(=O)=O)ccc1OC` [Levosulpiride] the value was 0.964; for `NC(=O)N1c2ccccc2C=Cc2ccccc21` [Carbamazepine], 1.04. On to `CC(=O)[C@H]1CC[C@H]2[C@@H]3CCC4=CC(=O)CC[C@]4(C)[C@H]3CC[C@]12C` [Progesterone], for which the GFP- is 0.82. For `Nc1cccc(-c2cc3c(Oc4cccc(O)c4)ncnc3[nH]2)c1` the value was 0.952; for `CC[C@H](NC(=O)[C@H](C)NC)C(=O)N1C[C@@H](O)C[C@H]1Cc1c(-c2[nH]c3cc(F)ccc3c2C[C@@H]2C[C@H](O)CN2C(=O)[C@H](CC)NC(=O)[C@H](C)NC)[nH]c2cc(F)ccc12` [Birinapant], 1.24. On to `O=C(NOCC(O)CO)c1cc(Br)c(F)c(F)c1Nc1ccc(I)cc1F` (stereo unspecified), for which the GFP- was 0.818. In turn, `C[C@@]1(C(=O)Nc2ccc(F)nc2)CCCN1c1nc(Nc2cc(C3CC3)[nH]n2)c2cccn2n1` returned a GFP- of 0.776. In turn, `Cc1ncc(CO)c(CO)c1O` [Pyridoxine] gave a GFP- of 1.1. `Cc1nc2c([nH]1)-c1ccccc1N(C(=O)c1ccc(NC(=O)c3ccccc3-c3ccccc3)cc1)CC2` [Conivaptan] registered a GFP- of 1.17. For `C[C@H](O)[C@H](O)[C@@H](O)[C@@H](O)C=O` [L-(+)-Rhamnose Monohydrate] the value was 0.964; for `CC(C)(C#N)c1cc(Cn2cncn2)cc(C(C)(C)C#N)c1` [Anastrozole], 1.06. Take `COc1cccc2c1C(=O)c1c(O)c3c(c(O)c1C2=O)C[C@@](O)(C(=O)CO)C[C@@H]3O[C@H]1C[C@H](N)[C@H](O)[C@H](C)O1` [Doxorubicin]: the GFP- is 0.72. For `Cc1nnc(C(=O)NC(C)(C)c2nc(C(=O)NCc3ccc(F)cc3)c(O)c(=O)n2C)o1` [Raltegravir] the value was 1.08; for `Cc1ccc(NCCCc2ccccc2)c(N)c1`, 1.04. In the case of `CO[C@H]1/C=C/O[C@@]2(C)Oc3c(C)c(O)c4c(O)c(c5c(c4c3C2=O)=NC2(CCN(CC(C)C)CC2)N=5)NC(=O)/C(C)=C\C=C\[C@H](C)[C@H](O)[C@@H](C)[C@@H](O)[C@@H](C)[C@H](OC(C)=O)[C@@H]1C` [Rifabutin], the GFP- was 1.07. `CN1CC(=O)N2[C@H](c3ccc4c(c3)OCO4)c3[nH]c4ccccc4c3C[C@@H]2C1=O` [Tadalafil]: the GFP- worked out at 1.02. `Cc1cn([C@@H]2C[C@@H](O)[C@H](CO)O2)c(=O)[nH]c1=O` [Telbivudine] came in with a GFP- of 1.09. Turning to `Nc1nnc(-c2cccc(Cl)c2Cl)c(N)n1` [Lamotrigine], the GFP- amounted to 0.993. In turn, `CCOc1nc2cccc(C(=O)OC(C)OC(=O)OC3CCCCC3)c2n1Cc1ccc(-c2ccccc2-c2nn[nH]n2)cc1` (stereo unspecified) [Candesartan Cilextil] displayed a GFP- of 0.986.

`COCCCC/C(=N\OCCN)c1ccc(C(F)(F)F)cc1` [Fluvoxamine] yielded a GFP- of 1. As to `CC(=O)Oc1ccccc1C(=O)O` [Acetylsalicylic acid], the GFP- stood at 0.96. `CNS(=O)(=O)CCc1ccc2[nH]cc(C3CCN(C)CC3)c2c1` [Naratriptan] showed a GFP- of 0.92. For `Nc1nc(O)c2ncn(COC(CO)CO)c2n1` [Ganciclovir] the value was 1.03; for `O=S(=O)(c1cccc2cnccc12)N1CCCNCC1` [Fasudil Hydrochloride], 1.01. For `Cc1cc(O)c2c(c1)C(=O)c1cccc(O)c1C2=O` [Chrysophanol], the GFP- was 1.01. In the case of `CC(=O)Nc1cccc(-n2c(=O)n(C3CC3)c(=O)c3c(Nc4ccc(I)cc4F)n(C)c(=O)c(C)c32)c1` [Trametinib], the GFP- worked out at 0.844. The compound `C=C[C@]1(C)C[C@@H](OC(=O)CSC(C)(C)CNC(=O)[C@H](N)C(C)C)[C@]2(C)[C@H](C)CC[C@]3(CCC(=O)[C@H]32)[C@@H](C)[C@@H]1O` [Valnemulin HCl] had a GFP- of 0.913.

With `c1ccc(-c2ccc(C(c3ccccc3)n3ccnc3)cc2)cc1` (stereo unspecified) [Bifonazole], the GFP- stood at 1.07. For the compound `CC[C@H](/C=C/[C@@H](C)[C@@H]1CC[C@H]2[C@@H]3CC=C4C[C@@H](O)CC[C@]4(C)[C@@H]3CC[C@@]21C)C(C)C` [Stigmasterol], the GFP- stood at 0.994. For `Cc1cn([C@H]2O[C@@H](CO)[C@H](O)[C@H]2F)c(=O)[nH]c1=O` [Clevudine] the value was 1.07; for `O=c1ncn2nc(Sc3ccc(F)cc3F)ccc2c1-c1c(Cl)cccc1Cl`, 1.13; for `O=C(O)c1cn(-c2ccc(F)cc2)c2cc(N3CCNCC3)c(F)cc2c1=O` [Sarafloxacin], 1.06. Regarding `CCCCCCCCCCCCCCCC[n+]1ccn(Cc2ccccc2)c1C`, the GFP- turned out to be 0.889. In the case of `CC1(C)CCC(C)(C)c2cc(NC(=O)c3ccc(C(=O)O)cc3)ccc21` [Tamibarotene], the GFP- was determined as 0.817. `CC(=O)NC[C@H]1CN(c2ccc(N3CCOCC3)c(F)c2)C(=O)O1` [Linezolid] came in with a GFP- of 0.998.

The compound `CN(C)C(=O)Nc1cccc(-c2ccc(N(C)C)cc2)c1` [Atglistatin] registered a GFP- of 0.934. Compound `CC(=O)Nc1ccc(NC(=S)NC(=O)c2ccc(C(C)(C)C)cc2)cc1` [Tenovin-1] displayed a GFP- of 0.758.

In turn, `CCn1cc(C(=O)O)c(=O)c2ccc(C)nc21` [Nalidixic Acid] had a GFP- of 0.895. `CN1C(C(=O)Nc2ccccn2)=C(O)c2sc(Cl)cc2S1(=O)=O` [Lornoxicam] displayed a GFP- of 0.907.

In the case of `CCC(=O)OCC(=O)[C@@]1(OC(=O)CC)[C@@H](C)C[C@H]2[C@@H]3CCC4=CC(=O)C=C[C@]4(C)[C@@]3(Cl)[C@@H](O)C[C@@]21C` [Beclomethasone Dipropionate], the GFP- is 1.2. With `CNC(=O)c1ccccc1Nc1nc(Nc2ccc(N3CCOCC3)cc2OC)ncc1Cl`, the GFP- came to 0.742. Regarding `N#Cc1ccc2[nH]c(O)c(-c3ccc(CN4CCOCC4)cn3)c2c1`, the GFP- was 1.1. Compound `O=NO` [Sodium Nitrite] registered a GFP- of 0.969.

In turn, `C[N+]1(C)CCC(=C(c2ccccc2)c2ccccc2)CC1` [Diphemanil Methylsulfate] showed a GFP- of 1.02. The compound `CC1CCc2c(N3CCC(O)CC3)c(F)cc3c(=O)c(C(=O)O)cn1c23` (stereo unspecified) [Nadifloxacin] had a GFP- of 1.21. Under `CCCN[C@H]1CCc2nc(N)sc2C1` [Pramipexole] stands 0.866; under `CC(C)(C)C(=O)OCOP(=O)(COCCn1cnc2c(N)ncnc21)OCOC(=O)C(C)(C)C` [Adefovir Dipivoxil], 0.842; under `CCCNC(C)C(=O)Nc1ccccc1C` (stereo unspecified) [Prilocaine], 1.01. As to `C[C@]12CC[C@@H]3c4ccc(O)cc4CC[C@H]3[C@@H]1CCC2=O` [Estrone], the GFP- amounted to 1.05.

Regarding `CC1(C)[C@H](C(=O)O)N2C(=O)C[C@H]2S1(=O)=O` [Sulbactam], the GFP- was 0.946 and 1.05. In turn, `CC(C)[C@H](N)C(=O)OCCOCn1cnc2c(O)nc(N)nc21` [Valaciclovir] had a GFP- of 1. Take `Cc1c(-c2ccccc2)oc2c(C(=O)OCCN3CCCCC3)cccc2c1=O` [Flavoxate]: the GFP- worked out at 1.1. As for `Cn1cc(/C=C/C(=O)c2cccc(F)c2)cc1/C=C/C(=O)NO`, the GFP- came to 0.865 ± 0.015. For `CCC[C@@H]1C[C@@H](C(=O)N[C@@H]([C@H]2O[C@H](SC)[C@H](O)[C@@H](O)[C@@H]2O)[C@@H](C)O)N(C)C1` [Lincomycin HCl] the value was 1.03; for `Nc1ncn([C@@H]2O[C@H](CO)[C@@H](O)[C@H]2O)c(=O)n1` [5-azacytidine, Azacitidine], 0.758 ± 0.04. For `C[C@@]12C[C@@]3(O)O[C@@H](O1)[C@]1(COC(=O)c4ccccc4)[C@H]3C[C@@]12O[C@@H]1O[C@H](CO)[C@@H](O)[C@H](O)[C@H]1O` [Paeoniflorin] the value was 0.962; for `CC1COC2(CCN(c3nc(=O)c4cc(C(F)(F)F)cc([N+](=O)[O-])c4s3)CC2)O1` (racemic) [BTZ043 Racemate], 1.26. In the case of `Cc1c(OCC(F)(F)F)ccnc1C[S@@](=O)c1nc2ccccc2[nH]1` [Dexlansoprazole], the GFP- amounted to 0.956. On to `N=C(N)N/N=C/c1c(Cl)cccc1Cl` [Guanabenz], for which the GFP- was found to be 1.08. For the compound `[O]=[Mg]` [Magnesium oxide], the GFP- worked out at 1.06. As for `CCCCC[C@H](O)/C=C/[C@H]1[C@H](O)CC(=O)[C@@H]1CCCCCCC(=O)O` [Alprostadil], the GFP- was 1.05. In turn, `CC(C)NCC(O)COc1ccc(COCCOC(C)C)cc1` (stereo unspecified) [Bisoprolol] came in with a GFP- of 1.09. Under `O=C(c1ccc(F)cc1)N1CCC[C@H](c2nc(-c3ccc(F)cc3)no2)C1` stands 1.2. Regarding `O=C(O)CCCN1CCC(O[C@@H](c2ccc(Cl)cc2)c2ccccn2)CC1` [Bepotastine Besilate], the GFP- was determined as 0.878. Compound `Cn1cc(-c2ccc3ncc(Cc4ccc5ncccc5c4)n3n2)cn1` yielded a GFP- of 1.01.

`Cc1noc(-c2ccc(CSCCC(=O)O)cc2)c1NC(=O)OC(C)c1ccccc1Cl` (stereo unspecified) gave a GFP- of 0.83.

Compound `NC(=O)c1cccc(-c2cc(Nc3ccc(OC(F)(F)F)cc3)ncn2)c1` returned a GFP- of 1.21. Turning to `Nc1nc(N)nc(-c2cc(Cl)ccc2Cl)n1` [Irsogladine Maleate], the GFP- worked out at 1.15.
